Measured values reported in patent publication US6180844A, “Composition containing fluorescence-generating substrate” (Aisin Seiki Kabushiki Kaisha, priority 1998, dated 2001).

Test system: human chromosome
Test: In-situ hybridization of a human chromosome: fluorescence-generating substrate reacted with probe-bonded peroxidase and hydrogen peroxide, observed by fluorescence microscope
Settings: fluorescence microscope observation
Excerpt: A human chromosome sample was hybridized with a digoxigenin-labeled, full-length human DNA probe, to which was bonded a peroxidase-labeled anti-digoxigenin antibody. This was reacted with any of fluorescence-generating substrates of the invention (Compounds 1 to 11) or with a comparative substrate of a commercially available, water-soluble fluorescent substrate, 3-(4-hydroxyphenyl)propionic acid (HPPA). […] The full-length human DNA probe hybridizes entirely with the human chromosome. Therefore, if the fluorescence-generating substrates tested herein are reacted in a reaction system comprising peroxidase and hydrogen peroxide, the entire chromosome in the system shall be seen to emit fluorescence in the fluorescence-microscopic observation.
The procedure is as follows:
Human chromosome samples were prepared from cultured human peripheral blood lymphocytes. Full-length human DNA was labeled with digoxigenin through nick translation, collected through ethanol precipitation, and dissolved in formamide to prepare a digoxigenin-labeled, full-length human DNA probe. Each human chromosome sample was immersed in a denaturing solution kept heated at 70° C., for 2 minutes, and then rapidly cooled by putting it into 70% ethanol cooled to 4° C., whereby the double-stranded DNA of the sample was kept dissociated in a single-stranded condition. The probe was kept in a water bath at 75° C. for 10 minutes, and then rapidly cooled in ice water with 5 minutes, whereby the double-stranded DNA of the probe was kept dissociated in a single-stranded condition. This probe was mixed with a hybridization solution, put on the human chromosome sample, and reacted with it overnight at 37° C. (in-situ hybridization).
After having been hybridized, the system was washed with a solution of 50% formamide/2×SSC at 37° C. for 15 minutes, then with 2×SSC at room temperature for 15 minutes, and then with 4×SSC at room temperature for 5 minutes, thereby removing the excess, non-hybridized probe therefrom. […] Any of the fluorescence-generating substrates (Compounds 1 to 11) of the invention and a commercially-available, water-soluble fluorescent substrate, HPPA was dissolved in a reactant solution containing 0.01% hydrogen peroxide […], and the resulting fluorescent substrate solution was put on the sample and reacted with it at room temperature for 30 minutes. After reacting in the reaction system comprising the probe-bonded peroxidase and hydrogen peroxide, the fluorescence-generating substrate formed a new compound which was fixed on the chromosome and emitted fluorescence, which was observed using a fluorescence microscopic.
The full-length human DNA probe hybridizes with the entire chromosome, with the result that the entire chromosome was stained with the fluorescence-generating substrate. […]

Row | Structure (SMILES) | Color of Fluorescence
1 | Cc1cc(O)ccc1NC(=O)c1ccccc1C [Compound 9] | green
2 | O=C(O)CCc1ccc(O)cc1 [HPPA, 3-(4-hydroxyphenyl)propionic acid, reference compound] | green
3 | Cc1cc(C)c(C(=O)Nc2ccc(O)cc2C)c(C)c1 [Compound 10, 4-hydroxy-2-methylphenyl-2,4,6-trimethylbenzamide] | green
4 | O=C(O)CCCCCNC(=O)CCc1ccc(O)cc1 [Compound 11, 6-{3-(4-hydroxyphenyl)propionamido}hexanoic acid] | green
